Residue numbers refer to the chain shown, from its start. No constants are given. Whether binding was seen depends on the method and setting. For some assays here: In cells and extracts the contact can be indirect. Some binding calls cover weakened binding; strength is not graded here. For some assays here: Tags and fused reporters may be left off the sequences shown. Blank lines part the entries; values can stand above or below the binder they belong to.
How the values were obtained:
[1] = target: Cx43 from rat heart lysate (rat) (UniProt P08050); assay: GST pulldown from rat heart lysate, western blot for Cx43
[2] = target: Cx43 from rat heart lysate (rat) (UniProt P08050); assay: GST pulldown from rat heart lysate on glutathione beads, western blot with anti-Cx43 antibody
[3] = target: Cx43 from rat heart lysate (rat) (UniProt P08050); assay: Cx43 pulldown assay, percent binding relative to RXPE; Example 19 does not state the source of Cx43
[4] = target: Recombinant Cx43CT (carboxyl terminal domain of rat connexin43, residues 255-382, preceded by GPLG) (rat) (UniProt P08050); assay: SPR, Cx43CT immobilized, peptide 250 µM and higher
[5] = target: Recombinant Cx43CT (carboxyl terminal domain of rat connexin43, residues 255-382, preceded by GPLG) (rat) (UniProt P08050); assay: SPR sensorgram, peptide 250 µM
[6] = target: Recombinant Cx43CT (carboxyl terminal domain of rat connexin43, residues 255-382, preceded by GPLG) (rat) (UniProt P08050); assay: SPR, Cx43CT immobilised, peptide 250 µM, pH 7.5 printed on the sheet

Amino acid sequences for entries named in this document (tags omitted). A change or cut given only in a name is not applied to a line headed by its entry. Chains listed by the source or under a name are the forms on record and can include a tag or linker. Residues count along the entry.
Cx43 from rat heart lysate (P08050, residues 2-382): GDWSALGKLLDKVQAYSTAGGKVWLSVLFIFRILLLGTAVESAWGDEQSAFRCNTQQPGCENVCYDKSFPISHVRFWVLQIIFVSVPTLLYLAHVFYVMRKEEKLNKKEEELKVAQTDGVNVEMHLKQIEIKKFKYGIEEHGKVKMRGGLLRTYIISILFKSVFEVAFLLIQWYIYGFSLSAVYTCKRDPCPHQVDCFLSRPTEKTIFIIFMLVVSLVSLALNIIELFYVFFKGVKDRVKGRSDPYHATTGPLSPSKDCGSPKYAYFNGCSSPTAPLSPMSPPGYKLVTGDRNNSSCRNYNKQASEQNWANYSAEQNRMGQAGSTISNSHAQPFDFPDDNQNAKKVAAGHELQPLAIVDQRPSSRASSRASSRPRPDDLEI
Recombinant Cx43CT (carboxyl terminal domain of rat connexin43, residues 255-382, preceded by GPLG) (P08050, form named): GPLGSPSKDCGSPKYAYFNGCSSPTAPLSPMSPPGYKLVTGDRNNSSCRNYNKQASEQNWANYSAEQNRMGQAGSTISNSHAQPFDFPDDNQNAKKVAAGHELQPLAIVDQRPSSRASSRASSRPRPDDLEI

B4: RXP-E (peptide)
peptide: SDDLRSPQLHNGGGSAVPFYSHSHMVRRKPRNPR
binding [3]: binds

B5: RXP4 (peptide)
peptide: RRPPYRVPPKLF
binding [4]: binds | binding [5]: binds | binding [6]: binds

B6: GST-NL.RXPE (glutathione S-transferase fused to NL.RXPE) (peptide, not shown: a dimerising Fc or GST)
chain: SDDLRSPQLHNHMVRRKPRNPR
binding [1]: binds | binding [3]: binds | binding [2]: binds

Now from value to binder:

binding [1]: binds | binding [2]: binds
B1: GST-RXPE (glutathione S-transferase fused to RXPE) (peptide, not shown: a dimerising Fc or GST)
chain: B4 peptide

binding [3]: binds
B2: 25 (peptide)
peptide: B4 peptide with R28A, P30A

binding [3]: binds
B3: 27 (peptide)
peptide: B4 peptide with P30A, R31A

From patent US20090075291A1, “PEPTIDE-BASED REGULATION OF GAP JUNCTIONS” (The Research Foundation of State University of New York, priority 2006, published 2009)
